From patent US5710244A, “Derivatized calcitonins” (priority 1993, dated 1998)
Not every detail of the peptide structures is certain; ends, links or a residue may be inferred.

Tests used:
[1] = tested on: endogenous hamster calcitonin receptor; experiment: CRE-linked luciferase (cyclic AMP) induction in BHK cells expressing endogenous hamster calcitonin receptor; assay type: cell-based; details: EC50 as % of salmon calcitonin (SCT) EC50, 4 h induction
Description: A BHK cell line expressing the endogenous hamster calcitonin receptor was transfected with plasmid KZ10-20-48 to provide the CRE-inducible luciferase receptor described above. The transfected cells were cultured in selective growth medium containing both 500 μg/mL G418-neomycin and 250 nM methotrexate.
Cells expressing the calcitonin receptor were assayed in triplicate for the induction of the CRE-linked luciferase response to salmon calcitonin (SCT) and derivatized calcitonins at concentrations ranging from 10^-13 M to 10^-6 M. MICROLITE flat bottom tissue culture plates (Baxter Scientific Products, Chicago, Ill.) were set up such that each well contained 2×10^4 cells in 100 μl of selection media, and the cells were grown overnight. SCT and GF43 were prepared at 2X the final assay concentration to give 10^-13 to 10^-6 M in growth medium. Induction was initiated by removing old medium from the wells and adding 100 μl of fresh growth medium and 100 μl of either 2X solution in triplicate sample wells. Uninduced luciferase levels were determined in triplicate wells to which 100 μl of DMEM containing 10% fetal calf serum was added. The plates were incubated for four hours at 37° C., 5% CO2 to allow induction of luciferase. […] The fold induction of luciferase for each compound was calculated as follows: […]

[2] = molecular target: T1, recombinant human calcitonin receptor (Homo sapiens, UniProt P30988); experiment: CRE-linked luciferase (cyclic AMP) induction in BHK/KZ10-20-48 cells expressing recombinant human calcitonin receptor; assay type: cell-based; details: text summary of the Table (hamster and human CT receptor)
T1 construct: expressed in transfected cells; host or cells: BHK/KZ10-20-48 (BHK cells carrying a CRE-luciferase reporter) transfected with pHOLLEX (ATCC 69067)
T1 sequence (P30988 25-474): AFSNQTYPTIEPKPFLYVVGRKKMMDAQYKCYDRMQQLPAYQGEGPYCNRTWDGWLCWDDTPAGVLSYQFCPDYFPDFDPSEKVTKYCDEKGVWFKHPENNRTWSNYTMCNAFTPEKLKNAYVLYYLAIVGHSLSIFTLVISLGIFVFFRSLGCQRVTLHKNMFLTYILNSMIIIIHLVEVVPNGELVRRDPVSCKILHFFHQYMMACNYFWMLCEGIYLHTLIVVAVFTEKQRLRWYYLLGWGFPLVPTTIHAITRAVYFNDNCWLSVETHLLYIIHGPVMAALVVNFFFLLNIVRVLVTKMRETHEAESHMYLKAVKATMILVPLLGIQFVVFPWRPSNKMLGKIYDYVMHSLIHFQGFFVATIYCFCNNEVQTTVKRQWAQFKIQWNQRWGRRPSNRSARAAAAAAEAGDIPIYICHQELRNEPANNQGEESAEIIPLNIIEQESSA

% SCT EC50, Hamster CT receptor [1]	activity / potency compared with human calcitonin [2]	SMILES
71%	greater activity than human calcitonin	CC(C)C[C@H](NC(=O)[C@H](CCCCN)NC(=O)CNC(=O)[C@H](CC(C)C)NC(=O)[C@@H](NC(=O)[C@@H]1CSSC[C@H](NC(=O)c2cccnc2)C(=O)N[C@@H](CO)C(=O)N[C@@H](CC(N)=O)C(=O)N[C@@H](CC(C)C)C(=O)N[C@@H](CO)C(=O)N[C@@H]([C@@H](C)O)C(=O)N1)C(C)C)C(=O)N[C@@H](CO)C(=O)N[C@@H](CCC(N)=O)C(=O)N[C@@H](CCC(=O)O)C(=O)N[C@@H](CC(C)C)C(=O)N[C@@H](Cc1c[nH]cn1)C(=O)N[C@@H](CCCCN)C(=O)N[C@@H](CC(C)C)C(=O)N[C@@H](CCC(N)=O)C(=O)N[C@H](C(=O)N[C@@H](Cc1ccc(O)cc1)C(=O)N1CCC[C@H]1C(=O)N[C@@H](CCCNC(=N)N)C(=O)N[C@H](C(=O)N[C@@H](CC(N)=O)C(=O)N[C@H](C(=O)NCC(=O)N[C@@H](CO)C(=O)NCC(=O)N[C@H](C(=O)N1CCC[C@H]1C(N)=O)[C@@H](C)O)[C@@H](C)O)[C@@H](C)O)[C@@H](C)O [ZP-5]
98%	greater activity than human calcitonin	CC(C)C[C@H](NC(=O)[C@H](CCCCN)NC(=O)CNC(=O)[C@H](CC(C)C)NC(=O)[C@@H](NC(=O)[C@@H]1CSSC[C@H](NC(=O)c2ccccn2)C(=O)N[C@@H](CO)C(=O)N[C@@H](CC(N)=O)C(=O)N[C@@H](CC(C)C)C(=O)N[C@@H](CO)C(=O)N[C@@H]([C@@H](C)O)C(=O)N1)C(C)C)C(=O)N[C@@H](CO)C(=O)N[C@@H](CCC(N)=O)C(=O)N[C@@H](CCC(=O)O)C(=O)N[C@@H](CC(C)C)C(=O)N[C@@H](Cc1c[nH]cn1)C(=O)N[C@@H](CCCCN)C(=O)N[C@@H](CC(C)C)C(=O)N[C@@H](CCC(N)=O)C(=O)N[C@H](C(=O)N[C@@H](Cc1ccc(O)cc1)C(=O)N1CCC[C@H]1C(=O)N[C@@H](CCCNC(=N)N)C(=O)N[C@H](C(=O)N[C@@H](CC(N)=O)C(=O)N[C@H](C(=O)NCC(=O)N[C@@H](CO)C(=O)NCC(=O)N[C@H](C(=O)N1CCC[C@H]1C(N)=O)[C@@H](C)O)[C@@H](C)O)[C@@H](C)O)[C@@H](C)O [ZP-6]
